Experimental data published in patent US20210363486A1, “CARDIOMYOCYTE PROLIFERATION PROMOTING AGENT AND USE THEREOF” (KYOTO UNIVERSITY, priority 2018, published 2021).
For at least one compound, name, drawing or mass did not settle the structure.

Test system: iPS cell-derived cardiomyocytes
Test: Screening for cardiomyocyte proliferation agent based on cell cycle activation (Fucci green fluorescence and cell number)
Set-up: species or system human
Details: compounds administered on day 22 after differentiation induction, evaluated on day 25; 384-well plate, 2500 cells per well
Source text: The Fucci gene (Cell. 2008 Feb. 8; 132 (3): 487-98.) was constitutively expressed under the CAG promoter using the PiggyBac transposon vector system (System Biosciences) in a healthy human-derived iPS cell line.
The Fucci gene-introduced iPS cell line was induced to differentiate into cardiomyocytes by the embryoid body method described in Funakoshi, S. et al. Sci Rep 8, 19111 […], cardiomyocytes were extracted using a cell sorter on day 20 after induction, and then seeded into a 384-well plate at 2500 cells per well.
On day 22 after differentiation induction, about 4000 types of compounds were administered, and on day 25, the reactivity of the proliferative capacity of iPS cell-derived cardiomyocytes to the drugs was evaluated based on the intensity of Fucci's green fluorescence and the number of cells.
The Fucci reporter emits orange fluorescence in the G1/G0 phase and green fluorescence in the S/G2/M phase of the cell cycle. Since the cell cycle of undifferentiated human iPS cells is activated, most cells emit green fluorescence. However, when these iPS cells are differentiated into cardiomyocytes, the cell cycle usually stops and most cells turn red.

## COC[C@H]1OC(=O)c2coc3c2[C@@]1(C)C1=C(C3=O)[C@@H]2CCC(=O)[C@@]2(C)C[C@H]1OC(C)=O [Wortmannin]
  proliferation and cell division of iPS cell-derived cardiomyocytes (Fucci's green fluorescence intensity and number of cells): promote the proliferation and cell division
